{"source": "PubChem BioAssay AID1259425 (University of Nebraska Medical Center, 2018)", "screen": "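Seek colon cancer weak points whose silencing resembles KSR1 loss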 (primary screen)", "system": "HCT116 human colon cancer cells", "knock-down reagent": "siRNA pool against human genes, 50 nM siRNA", "measurement": "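After 50 nM siRNA pool, branched-DNA assay measures six marker transcripts per well, minus blank, normalised to the geometric mean of two housekeeping transcripts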", "scale": "BNIP3L mRNA: higher = more BNIP3L transcript after knockdown", "note": "In all, the deposit lists about 14,000 reagents; shown is a random part of them. Not all columns of the deposit are shown. The record does not give: the time to read-out."}
{"Target gene":"GNB3 (GeneID 2784)","BNIP3L mRNA, set 1":0.105}
{"Target gene":"TPD52L3 (GeneID 89882)","BNIP3L mRNA, set 1":0.0701}
{"Target gene":"VAMP2 (GeneID 6844)","BNIP3L mRNA, set 1":0.312}
{"Target gene":"PLSCR2 (GeneID 57047)","BNIP3L mRNA, set 1":0.132}
{"Target gene":"PRPS1 (GeneID 5631)","BNIP3L mRNA, set 1":0.172}
{"Target gene":"CRIP1 (GeneID 1396)","BNIP3L mRNA, set 1":0.173}
{"Target gene":"NLRP2 (GeneID 55655)","BNIP3L mRNA, set 1":0.0699}
{"Target gene":"RBP1 (GeneID 5947)","BNIP3L mRNA, set 1":0.0865}
{"Target gene":"TRAF1 (GeneID 7185)","BNIP3L mRNA, set 1":0.142}
{"Target gene":"SMPD1 (GeneID 6609)","BNIP3L mRNA, set 1":0.119}
{"Target gene":"NFATC2 (GeneID 4773)","BNIP3L mRNA, set 1":0.103}
{"Target gene":"ARHGEF11 (GeneID 9826)","BNIP3L mRNA, set 1":0.114}
{"Target gene":"ZFAND1 (GeneID 79752)","BNIP3L mRNA, set 1":0.22}
{"Target gene":"CDH20 (GeneID 28316)","BNIP3L mRNA, set 1":0.0658}
{"Target gene":"HECW2 (GeneID 57520)","BNIP3L mRNA, set 1":0.157}
{"Target gene":"PERM1 (GeneID 84808)","BNIP3L mRNA, set 1":0.135}
{"Target gene":"FABP3 (GeneID 2170)","BNIP3L mRNA, set 1":0.0642}
{"Target gene":"HSPB7 (GeneID 27129)","BNIP3L mRNA, set 1":0.0864}
{"Target gene":"RIMS1 (GeneID 22999)","BNIP3L mRNA, set 1":0.0863}
{"Target gene":"TSSK2 (GeneID 23617)","BNIP3L mRNA, set 1":0.149}
{"Target gene":"MUC3B (GeneID 57876)","BNIP3L mRNA, set 1":0.0823}
{"Target gene":"EIF4G2 (GeneID 1982)","BNIP3L mRNA, set 1":0.201}
{"Target gene":"WDR26 (GeneID 80232)","BNIP3L mRNA, set 1":0.133}
{"Target gene":"PPL (GeneID 5493)","BNIP3L mRNA, set 1":0.0939}
{"Target gene":"RFNG (GeneID 5986)","BNIP3L mRNA, set 1":0.123}
{"Target gene":"LRRC37A4P (GeneID 55073)","BNIP3L mRNA, set 1":0.0813}
{"Target gene":"SSX4 (GeneID 6759)","BNIP3L mRNA, set 1":0.081}
{"Target gene":"EMC6 (GeneID 83460)","BNIP3L mRNA, set 1":0.247}

3 of these entries in another layout.
Target gene,"BNIP3L mRNA, set 1"
RBP1 (GeneID 5947),0.0865
TRAF1 (GeneID 7185),0.142
SMPD1 (GeneID 6609),0.119
